Laboratory results: PubChem BioAssay AID652272 (Drosophila RNAi Screening Center, 2013)
In all, the deposit lists about 21,000 reagents; below is an unselected part of those that have a named target and a result. Over the whole deposit, 503 (2.4%) are marked active. 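Raw plate light values, not normalised; calls rest on replicate z-scores that were not deposited; hits include reporter decreases as well as increases.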 The numbers tell different reagents against one gene apart. Reagent sequences are not shown. Not stated in the record: the amount of reagent, the time to read-out.

- Screen: 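Genome-wide knock-down search for components of Hedgehog signalling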 (primary screen)
- Cells: Drosophila clone 8 (Cl8) cells
- Knock-down reagent: long dsRNA against Drosophila genes
- Detection: 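Firefly light from a Hedgehog-responsive ptc promoter reporter and Renilla reference light, both read on a plate reader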
- Reading the numbers: firefly Hh reporter signal: higher = more ptc reporter light; Renilla reference signal: higher = more Renilla control light
- Call rule: 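Hit when the z-score averaged over two replicates is under -2 or over +3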
- Calls: active = hit: reporter lowered or raised; inactive = not a hit

no.	gene knocked down	reagent	firefly Hh reporter signal, replicate 1	firefly Hh reporter signal, replicate 2	firefly Hh reporter signal, replicate 3	Renilla reference signal, replicate 1	Renilla reference signal, replicate 2	Outcome
1	sei	1	1.13e5	35835		3733	1376	inactive
2	CG7916	1	98487	44101		2716	4122	inactive
3	CG33307	1	5.37e5	1.60e5		27099	7661	inactive
4	CG43089	1	1.01e5	1.93e5		2869	7655	inactive
5	CG30356	1	1.30e5	2.28e5		3430	9378	inactive
6	cu	1	54636	97305		1683	2481	inactive
7	cu	2	1.50e5	1.38e5		4166	3661	inactive
8	CG3408	1	12496	41273	46044	5136	3830	inactive
9	CG32808	1	5.22e5	2.16e5		26833	4640	inactive
10	Tsp42Ec	1	72080	61763		1979	5061	inactive
11	gskt	1	4.80e5	2.09e5		25552	3824	inactive
12	Zif	1	99789	58904		4595	2752	inactive
13	CG3894	1	1.34e5	2.79e5		3737	11709	inactive
14	CG3894	2	1.95e5	2.27e5		4124	11016	inactive
15	CG3894	3	1.65e5	74915		3964	3645	inactive
16	CG3704	1	1.18e5	2.03e5		4528	8091	inactive
17	CG3704	2	1.54e5	3.30e5		5542	11253	inactive
18	Alg3	1	1.18e5	42080		4804	1714	inactive
19	jigr1	1	1873	2.84e5		609	6167	inactive
20	jigr1	2	6.74e5	1.56e5		34330	4004	inactive
21	Marc	1	1.00e5	43952		1739	2487	inactive
22	CG13607	1	6.24e5	1.04e5		29786	3373	inactive
23	dnc	1	1.00e5	84146		3463	3408	inactive
24	dnc	2	77253	1.40e5		2880	5399	inactive
25	dnc	3	86583	2.39e5		3601	9210	inactive
26	dnc	4	1.15e5	3.52e5		4448	12736	inactive
27	dnc	5	97288	2.84e5		2773	11432	inactive
28	CG16974	1	1.50e5	74266		4858	2795	inactive
29	GCC88	1	63173	1.40e5		2259	4185	inactive
30	Fas2	1	4.26e5	1.28e5		21632	2920	inactive
31	Fas2	2	4.54e5	1.95e5		22217	3745	inactive
32	Fas2	3	1.22e5	1.11e5		2405	3893	inactive
33	ALiX	1	94986	96461		2042	2516	inactive
34	pk	1	79696	42137		1834	3659	inactive
35	pk	2	1.40e5	72707		4224	7232	inactive
36	cid	1	1.20e5	3.50e5		3049	12092	inactive
37	cid	2	81501	78692		1842	5268	inactive
38	CG13868	1	1.07e5	38592		4449	1702	inactive
39	Jwa	1	94343	81302		4392	3443	inactive
40	CG5577	1	1.01e5	45904		3763	1964	inactive
41	Sap30	1	77430	2.35e5		3174	8231	inactive
42	rngo	1	5.57e5	74946		3520	3520	inactive
43	Cap-D2	1	79157	90963		2192	2994	inactive
44	melt	1	91579	61041		9207	4364	inactive
45	CG8785	1	93851	52114		4186	2192	inactive
46	pHCl-1	1	2.34e5			5952		inactive
47	pHCl-1	2	75344			3856	2365	inactive
48	pHCl-1	3	96005			5901	2932	inactive
49	pHCl-1	4	1.04e5			5362	3264	inactive
50	CG4793	1	97264	61943		2720	5832	inactive
51	CG14400	1	1.01e5	57014		2576	5176	inactive
52	CG42537	1	62576	1.49e5		2980	4483	inactive
53	Seipin	1	50749	2.77e5		1298	10187	inactive
54	pasi1	1	7.86e5	8.23e5	1.76e5	42259	6225	inactive
55	Cpr23B	1	1.60e5	1.03e5		3933	2128	inactive
56	CG8292	1	88009	43882		2201	4310	inactive
57	ase	1	72362	1.72e5		1765	6307	inactive
58	Porin2	1	1.32e5	82736		2730	7168	inactive
59	AcCoAS	1	6.91e5	3.57e5	1.13e5	5120	8227	inactive
60	AcCoAS	2	66259	52473		2305	2077	inactive
61	Prp19	1	73475	57300		2387	4617	inactive
62	CG11037	1	1.24e5	1.25e5		4715	3961	inactive
63	Obp50e	1	90292	69564		2480	5169	inactive
64	CG42710	1	4.74e5	1.63e5		23889	5943	inactive
65	tobi	1	5.21e5	76997		33536	2000	inactive
66	CG2017	1	1.03e5	68379		4907	2445	inactive
67	CG15715	1	1.30e5			3788	3697	inactive
68	Nthl1	1	96762	43442		2376	3489	inactive
69	CG14071	1	99448	66925		2664	5985	inactive
70	CG7914	1	83141	2.25e5		3001	8752	inactive
71	CG8854	1	79672	41606		3825	1760	inactive
72	dpp	1	3.07e5	73465		21307	6147	active
73	dpp	2	6.84e5	2.13e5		35283	9578	inactive
74	dpp	3	90617	80738		2162	2080	inactive

Targets above whose gene name begins with A or a:
gene knocked down	reagent	firefly Hh reporter signal, replicate 1	firefly Hh reporter signal, replicate 2	firefly Hh reporter signal, replicate 3	Renilla reference signal, replicate 1	Renilla reference signal, replicate 2	Outcome
Alg3	1	1.18e5	42080		4804	1714	inactive
ALiX	1	94986	96461		2042	2516	inactive
ase	1	72362	1.72e5		1765	6307	inactive
AcCoAS	1	6.91e5	3.57e5	1.13e5	5120	8227	inactive
AcCoAS	2	66259	52473		2305	2077	inactive
